Where a name gives a salt, the structure may show the parent alone. The list shows a part of the results. This data set is noisy: repeats of one test often differ as much as different tests do.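 The cells were human embryonic kidney cells carrying a Renilla luciferase gene, driven by the HSV-TK promoter, on a plasmid put in briefly by transfection. This is the first-round screen of about ten thousand compounds, looking for ones that raise reporter output.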

The values below come from the supplement of paper PMC7024190.

This assay deals with HEK 293FT. The assay is described as follows: log relative Renilla luciferase luminescence (reporter expression vs reference, reference not stated) (log (base not stated)); higher = higher recombinant reporter expression. The settings on record: 10 µM; time after transfection 48 h.
Regarding `CCO/C(O)=C1\C(C)=NC(c2ccccc2)=C(C(=O)OCc2ccc([N+](=O)[O-])cc2)C1C#Cc1ccccc1` (stereo not given), the log is 0.103.
`Cn1cc(C(=O)OCC2CCN(CCNS(C)(=O)=O)CC2)c2ccccc21`: the log stood at 0.038.
For the molecule `CCn1ccnc1CC1COc2ccccc2O1` (stereo not given) [Imiloxan hydrochloride], the log was determined as 0.0801.
In the case of `O=C(O)c1cccnc1C(=O)O` [Quinolinic acid], the log was -0.738.
For the molecule `CC(C)[C@H](CO)Nc1nc(Nc2ccc(C(=O)O)c(Cl)c2)c2ncn(C(C)C)c2n1` [Purvalanol B], the log came to 0.0127.
For `c1ccc(COCCCc2c[nH]cn2)cc1` [Proxyfan Oxalate] the value was 0.031; for `O=C(NCC1CCCCN1)c1cc(OCC(F)(F)F)ccc1OCC(F)(F)F` (stereo not given) [Flecainide acetate], -0.0275; for `CCS(=O)(=O)N(C)[C@H]1c2cc(C#N)ccc2OC(C)(C)[C@@H]1O` (racemic) [Chromanol 293B], 0.0106.
For `O=C1CCc2c(ccc3ccccc23)O1` [Splitomicin], the log is 0.0175.
For `Fc1ccc(C(c2ccc(F)cc2)N2CCN(C/C=C/c3ccccc3)CC2)cc1` [Flunarizine dihydrochloride], the log was 0.0898.
With `CNC(=O)[C@H]1O[C@@H](n2cnc3c(NCc4cccc(I)c4)nc(Cl)nc32)[C@H](O)[C@@H]1O`, the log amounted to 0.0915.
For `O=C(O)c1ccccc1Nc1cccc(OCc2ccc3ccccc3n2)c1` [SR 2640 hydrochloride], the log worked out at 0.125.
The figure for `CC(=N)NCc1cccc(CN)c1` [1400W dihydrochloride] is 0.0534; for `Nc1nc(Cl)nc2c1ncn2[C@@H]1O[C@H](CO)[C@@H](O)[C@@H]1F` [Clofarabine] it is -1.02.
As to `O=C(O)COc1cccc(-c2ocnc2-c2nc(-c3ccccc3)c(-c3ccccc3)o2)c1`, the log was found to be 0.135.
In the case of `Oc1cc2c(c(Cl)c1O)CCNCC2c1ccccc1` (stereo not given), the log worked out at 0.0583.
On to `COc1cc2ncn(-c3cc(OCc4ccccc4C(F)(F)F)c(C(N)=O)s3)c2cc1OC`, for which the log was determined as 0.359.
The figure for `O=C(O)CC/C=C\C[C@H]1CO[C@@H](c2ccccc2Cl)O[C@H]1c1ccccc1O` is 0.0438.
Regarding `CN1c2cc3c(cc2N=C(c2ccc(C(=O)O)cc2)c2ccccc21)C(C)(C)CCC3(C)C`, the log is -0.0837.
On to `c1cc2c3c(c1)c1c(n3CCNC2)CCCC1` [WAY 629 hydrochloride], for which the log amounted to 0.1.
The figure for `CC(C)NC[C@@H](O)COc1cccc2ccccc12` [(R)-(+)-Propranolol hydrochloride] is 0.0967; for `CN1CCC[C@@H]1Cc1c[nH]c2ccc(CCS(=O)(=O)c3ccccc3)cc12` [Eletriptan hydrobromide] it is 0.188; for `Cc1nc2ccc(NC(=O)Nc3ccnc4cccnc34)cc2o1` it is 0.102.
For the molecule `Oc1ccc(Nc2nc(-c3ccc(Cl)cc3)cs2)cc1`, the log came to 0.0168.
For `N[C@H](C(=O)O)c1cc(O)cc(O)c1` the value was 0.0438.
`CC(Cc1ccc(O)c(O)c1)(NN)C(=O)O` [(S)-(-)-Carbidopa]: the log turned out to be 0.119.
Consider `Cc1cc(F)c(Nc2ncnc3cc(OCc4ccccc4)ccc23)cc1O`, for which the log was -0.0328.
Consider `Cc1nc2c(O)cccc2c(=O)[nH]1`, for which the log stood at 0.0801.
`CCCC(=O)Nc1ncnc2c1ncn2[C@@H]1O[C@@H]2COP(=O)(O)O[C@H]2[C@H]1OC(=O)CCC` [Dibutyryl-cAMP, sodium salt]: the log is -0.0785.
For `CCC1=C(C)CN(C(=O)NCCc2ccc(S(=O)(=O)NC(=O)N[C@H]3CC[C@H](C)CC3)cc2)C1=O` [Glimepiride] the value was -0.126; for `N#Cc1ccccc1OCC(O)CNCCNC(=O)Nc1ccccc1` (stereo not given), -0.0369.
For the molecule `Cc1cc(C)c(S(=O)(=O)Nc2cccc(C(F)(F)F)c2)c(C)c1`, the log is 0.544.
As for `O=C1NC(=O)c2c1c(-c1ccccc1)cc1[nH]c3ccc(O)cc3c21`, the log was -0.451.
For the molecule `N[C@@H](CS(=O)O)C(=O)O` [L-Cysteinesulfinic acid], the log was determined as 0.109.
Consider `CCCCn1c(=O)c2[nH]c(C34CC5CC(CC3C5)C4)nc2n(CCCO)c1=O`, for which the log is -0.0142.
As for `CCN(CC)CCCCNc1ncc2cc(-c3c(Cl)cccc3Cl)c(NC(=O)NC(C)(C)C)nc2n1`, the log is -1.42.
Turning to `CC(C1=C(CCN(C)C)Cc2ccccc21)c1ccccn1` (stereo in doubt) [(S)-(+)-Dimethindene maleate], the log is -0.0585.
For `c1ccc2cc(C3=NCCN3)ncc2c1` [BU 226 hydrochloride] the value was -0.00758; for `NC(=O)CNCCC(c1ccccc1)c1ccccc1` [N20C hydrochloride], 0.023; for `N#C/C(=C\c1ccc(O)c(O)c1)C(=O)NCCCc1ccccc1`, 0.023.
